Source: US20110112279A1
No constants are given. Whether binding was seen depends on the method and setting. Some results given as binding are weak or reduced against the parent protein; the word gives no strength.

Protein sequences, listed by entry. Tags and fused reporters are not part of them. Lines headed by an entry give the natural chain unless they say otherwise; changes in a name come on top.
UniProt Q96CG8: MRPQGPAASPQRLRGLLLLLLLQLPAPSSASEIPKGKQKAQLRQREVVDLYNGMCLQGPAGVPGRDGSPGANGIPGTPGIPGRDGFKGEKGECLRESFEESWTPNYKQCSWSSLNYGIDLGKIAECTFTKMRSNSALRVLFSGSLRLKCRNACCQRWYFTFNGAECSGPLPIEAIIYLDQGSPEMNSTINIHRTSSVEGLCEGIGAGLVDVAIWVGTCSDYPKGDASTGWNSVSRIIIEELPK

Assays:
[1] = target: human STOP-1, full length, C-terminal 8xHis tag (h762HIP; M1-K243-His), expressed in CHO-psgb cells (human) (UniProt Q96CG8); assay: FACS on HT1080 cells with His-tagged STOP-1
[2] = target: human STOP-1, full length, untagged, expressed by retroviral infection in 3T3 and 293 cells (human) (UniProt Q96CG8); assay: immunoprecipitation from lysates of infected 3T3 and 293 cells, western with polyclonal anti-STOP-1

- binding [1]: binds
- binding [2]: binds
B1: S7 IgG (full-length human IgG1; LPG3-humankappaG6 and LPG4-humanHC-S7), expressed in CHO cells (antibody, V domains shown, not shown: a dimerising Fc or GST)
VH: EVQLVESGGGLVQPGGSLRLSCAASGFTISGSDIHWVRQAPGKGLEWVGRISPYGGNTNYADSVKGRFTISADTSKNTAYLQMNSLRAEDTAVYYCARVGGLKLLFDYWGQGTLVTVSS
VL: DIQMTQSPSSLSASVGDRVTITCRASQDVSTAVAWYQQKPGKAPKLLIYSASFLYSGVPSRFSGSGSGTDFTLTISSLQPEDFATYYCQQSYTTPPTFGQGTKVEIKR
